Taken from: PubChem BioAssay AID1117269 (University of Michigan, 2014)
Assay: 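Which kinase knockdowns increase BTR reporter light after TGF-beta stimulation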 (primary screen). System: human A549 lung cancer and 1833 breast cancer (MDA-MB-231-derived) cell lines carrying a stable BTR luciferase reporter. Reagent: siRNA pool against human genes. Time to read-out: 72 h after transfection, then 1 h TGF-beta before the read. Challenge: TGF-beta 10 ng/mL added one hour before luciferin and read-out. Measurement: 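Live-cell BTR luciferase signal at 72 h after transfection and 1 h of TGF-beta at 10 ng/mL, fold versus scrambled siRNA, triplicate mean for each line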. Scale: fold over scrambled siRNA, A549 and fold over scrambled siRNA, 1833: higher = more reporter light, weaker TGF-beta receptor signalling. Call rule: 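Active if a hit in A549 or 1833; a line's hit exceeds an upper quartile-based cutoff on mean log fold values, applied per plate and across the whole screen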. Meaning of the calls: active = hit in at least one line; inactive = hit in neither line.
Shown is an unselected part of 714 deposited reagents. Over the whole deposit, 49 (6.9%) got an active call. 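Active means a hit in at least one line; per-line hit columns show which; some siRNA pools appear more than once.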 Reagent sequences are not shown. Not given: the amount of reagent.

gene,"fold over scrambled siRNA, A549","fold over scrambled siRNA, 1833",hit in A549,hit in 1833,call
PFKFB2,5.66,5.52,hit in A549,not a hit in 1833,active
CDK8,2.69,4.38,not a hit in A549,not a hit in 1833,inactive
PIKFYVE,1.85,3.33,not a hit in A549,not a hit in 1833,inactive
MAPK1,1.91,5.53,not a hit in A549,not a hit in 1833,inactive
FGFRL1,2.49,9.09,not a hit in A549,not a hit in 1833,inactive
ALPK1,1.07,4.3,not a hit in A549,not a hit in 1833,inactive
CDKL1,0.905,0.849,not a hit in A549,not a hit in 1833,inactive
MAPK10,1.29,7.33,not a hit in A549,not a hit in 1833,inactive
MAST2,1.08,1.21,not a hit in A549,not a hit in 1833,inactive
PRKAR2B,2.33,1.71,not a hit in A549,not a hit in 1833,inactive
MAP3K13,1.38,7.14,not a hit in A549,not a hit in 1833,inactive
EXOSC10,0.81,1.9,not a hit in A549,not a hit in 1833,inactive
LMTK1,2.57,27.3,not a hit in A549,hit in 1833,
MAP3K19,0.293,0.6,not a hit in A549,not a hit in 1833,inactive
ITK,1.78,3.87,not a hit in A549,not a hit in 1833,inactive
CSNK2B,2.24,2.08,not a hit in A549,not a hit in 1833,inactive
PANK3,1.31,4.68,not a hit in A549,not a hit in 1833,inactive
ANKK1,1.69,1.53,not a hit in A549,not a hit in 1833,inactive
CDKL2,1.29,1.81,not a hit in A549,not a hit in 1833,inactive
PAK1,0.648,1.6,not a hit in A549,not a hit in 1833,inactive
ALPK2,1.95,2.67,not a hit in A549,not a hit in 1833,inactive
CAMK2B,3.81,6.62,not a hit in A549,not a hit in 1833,inactive
VRK2,1.1,1.49,not a hit in A549,not a hit in 1833,inactive
PRKCB,1.14,4.67,not a hit in A549,not a hit in 1833,inactive
MYO3A,0.74,6.67,not a hit in A549,not a hit in 1833,inactive
CDKN1A,0.788,2.83,not a hit in A549,not a hit in 1833,inactive
DSTYK,1.33,1.73,not a hit in A549,not a hit in 1833,inactive
MARK2,3.57,6.64,not a hit in A549,not a hit in 1833,inactive
ADK,0.905,1.92,not a hit in A549,not a hit in 1833,inactive
STK4,5.76,4.16,hit in A549,not a hit in 1833,active
TAOK2,3.57,5.82,not a hit in A549,not a hit in 1833,inactive
MARK3,0.643,1.6,not a hit in A549,not a hit in 1833,inactive

Copied from the list.
For “hit in 1833”, MAPK1 reads not a hit in 1833
Value of ADK in “hit in 1833”: not a hit in 1833
Result of MAPK10 under “fold over scrambled siRNA, 1833”: 7.33
Under “fold over scrambled siRNA, A549”, PAK1 has 0.648
For “fold over scrambled siRNA, 1833”, ITK is entered as 3.87
